Reference: patent publication US6596498B1 (Osteopharm Inc., priority 1993, dated 2003)

Test: peptide synthesis
Conditions: whole synthesis, HPLC

## GIGKRTNEHTADCKIKPNTLHKKAAETLMVLDQNQP
  purity (crude or final not stated): 99%

Ends that are not written are not given here.
